From the supplement of paper PMC7024190
Counter-ions that a name gives are not always drawn. Some of the results follow. This data set is noisy: repeats of one test often differ as much as different tests do.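 A first-round screen of about ten thousand compounds sought those raising reporter output, using human embryonic kidney cells briefly transfected with a plasmid carrying a Renilla luciferase gene driven by the HSV-TK promoter.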

These compounds were tested on HEK 293FT (assay: log relative Renilla luciferase luminescence (reporter expression vs reference, reference not stated) (log (base not stated)); higher = higher recombinant reporter expression). Conditions: 10 µM; time after transfection 48 h.

SMILES | log
C[C@H]1O[C@@H](O[C@H]2[C@@H](O)C[C@H](O[C@H]3[C@@H](O)C[C@H](O[C@H]4CC[C@@]5(C)[C@H](CC[C@@H]6[C@@H]5CC[C@]5(C)[C@@H](C7=CC(=O)OC7)[C@@H](O)C[C@]65O)C4)O[C@@H]3C)O[C@@H]2C)C[C@H](O)[C@@H]1O [gitoxin] | -1.28
C=C[C@H]1CN2CC[C@H]1C[C@H]2[C@H](O)c1ccnc2ccccc12 [cinchonidine] | 0.179
CNNC [1,2-dimethylhydrazine hydrochloride] | -0.0363
O=C1C=CC(=O)c2c(O)cccc21 [juglone] | -0.246
OC[C@@H]1CCCN2CCCC[C@H]12 [lupinine] | -0.291
C=CC[C@]1(O)CC[C@H]2[C@@H]3CCC4=CC(=O)CCC4=C3C=C[C@@]21C [altrenogest] | 0.0398
COc1cc(OC)c2c(c1)O[C@H](c1ccc(OC)c(OC)c1)[C@@H](O)C2 [catechin tetramethylether] | 0.00551
C=C[C@H]1CN2CC[C@H]1C[C@@H]2[C@@H](O)c1ccnc2ccccc12 [cinchonine] | 0.172
C=CCN=C=S [allylisothiocyanate] | -1.47
CC(Cc1ccc(O)cc1)NCC(O)c1cc(O)cc(O)c1 (configuration not stated) [fenoterol hydrobromide] | -0.00743
C1CCc2nnnn2CC1 [pentylenetetrazol] | -0.17
C[C@]12CC[C@@H](O)C[C@@H]1CC[C@@H]1[C@@H]2CC[C@]2(C)C(=O)CC[C@@H]12 [androsterone] | 0.0279
CC(=O)O[C@@H]1C[C@@]2(C)[C@H](c3ccoc3)C[C@H]3O[C@]32[C@]2(C)C(=O)C(O)=C3C(C)(C)C(=O)C=C[C@]3(C)[C@@H]12 [anthothecol] | -1.67
O=c1[nH]c2ccccc2n1CCCN1CCC(n2c(=O)[nH]c3cc(Cl)ccc32)CC1 [domperidone] | 0.0224
COC(=O)C1=CO[C@@H](C)[C@H]2CN3CC[C@]4(C(=O)Nc5ccccc54)[C@@H]3C[C@H]12 [mitraphylline] | 0.0516
N#C/C(=C\c1cccc(O)c1)C(=O)O [alpha-cyano-3-hydroxycinnamic acid] | -0.0684
O=C([O-])c1ccccc1-c1c2cc(Br)c(=O)cc-2oc2[c]([Hg+])c([O-])c(Br)cc12.[Na+].[Na+].[OH-] [merbromin] | -0.0681
CC(C)[N+](C)(CCC(C(N)=O)(c1ccccc1)c1ccccc1)C(C)C [isopropamide iodide] | 0.166
C#C[C@]1(O)CC[C@H]2[C@@H]3CCC4=CC(=O)CC[C@]4(C)[C@H]3CC[C@@]21C [ethisterone] | 0.0795
CC(C)CC(N(C)C)C1(c2ccc(Cl)cc2)CCC1 (configuration not stated) [sibutramine hydrochloride] | 0.004
NC(N)=NOCC[C@H](N)C(=O)O [canavanine] | 0.0613
O=C([O-])Cc1ccccc1.[Na+] [sodium phenylacetate] | 0.147
C[C@]12CC[C@H]3[C@@H](CC[C@]4(O)C[C@@H](O)CC[C@]34C=O)[C@@]1(O)CC[C@@H]2C1=CC(=O)OC1 [strophanthidin] | -1.42
O=c1[nH]c(=O)n(Cl)c(=O)n1Cl [troclosene potassium] | 0.047

A stretch from further up, for reference:
SMILES | log
C=CC[C@]1(O)CC[C@H]2[C@@H]3CCC4=CC(=O)CCC4=C3C=C[C@@]21C [altrenogest] | 0.0398
COc1cc(OC)c2c(c1)O[C@H](c1ccc(OC)c(OC)c1)[C@@H](O)C2 [catechin tetramethylether] | 0.00551
C=C[C@H]1CN2CC[C@H]1C[C@@H]2[C@@H](O)c1ccnc2ccccc12 [cinchonine] | 0.172

Additional entries.

SMILES | log
NC(=O)CN1CCCC1=O [piracetam] | 0.157
CC(=O)OC1CCC23C(=O)OC45CCC(C6=CC(=O)OC6)C4(C)CCC2C5CCC3(O)C1 (configuration not stated) [strophanthidinic acid lactone acetate] | -0.987
O=P1(NCCCl)OCCCN1CCCl (configuration not stated) [ifosfamide] | -0.0587
CC(C)c1c(CN(C)C(C)Cc2ccccc2)n(C)n(-c2ccccc2)c1=O (configuration not stated) [famprofazone] | 0.0481
Oc1ccc(Cl)cc1 [parachlorophenol] | 0.0842
C=C(C)[C@@H]1[C@H]2OC(=O)[C@@H]1[C@]1(O)C[C@H]3O[C@]34C(=O)O[C@H]2[C@]14C [picrotoxinin] | 0.0115
COc1cc([C@@H]2c3cc4c(c(O)c3C[C@H]3COC(=O)[C@@H]32)OCO4)cc(OC)c1OC [beta-peltatin] | 0.0433
NC(=O)C[S+]([O-])C(c1ccccc1)c1ccccc1 (configuration not stated) [modafinil] | 0.0773
C[C@@H](CO)NC(=O)[C@@H]1C=C2c3cccc4[nH]cc(c34)C[C@H]2N(C)C1 [ergonovine maleate] | -0.0435
Clc1ccc(C(OCCN2CCCCC2)c2ccccc2)cc1 (configuration not stated) [cloperastine hydrochloride] | -0.0276
C[C@]12CC[C@H](O)C[C@H]1CC[C@@H]1[C@@H]2C[C@@H](O)[C@]2(C)[C@@H](C3=CC(=O)OC3)CC[C@]12O [digoxigenin] | -1.37
NCCc1c[nH]c2ccccc12 [tryptamine] | 0.0043
Cc1cccc(C)c1NC1=NCCCS1 [xylazine] | -0.0325
C[C@]12CCC(=O)C=C1CCc1ccc(O)cc12 [12-hydroxy-4,4-bisnor-4,8,11,13-podocarpatetraen-3-one] | -0.00986
COc1c2c(cc3c1OCO3)CC[N+](C)=C2 [cotarnine chloride] | 0.0391
CC(=O)OCC1=C(C(=O)O)N2C(=O)[C@@H](NC(=O)CCC[C@@H](N)C(=O)O)[C@H]2SC1 [cephalosporin c sodium] | 0.0372
CCNC1(c2cccs2)CCCCC1=O (configuration not stated) [tiletamine hydrochloride] | -0.00902
Cc1ccc(O)cc1.Cc1cccc(O)c1.Cc1ccccc1O [cresol] | 0.00801
CC[C@H]1[C@@H]2C[C@H]3[C@@H]4N(C)c5ccccc5[C@]45C[C@@H]([C@@H]2[C@H]5O)N3[C@@H]1O [ajmaline] | 0.0223
CS(=N)(=O)CC[C@H](N)C(=O)O (some centres not stated) [methionine sulfoximine (l)] | 0.0636
C[C@@H]1CC[C@H]2[C@@H](C)C(=O)O[C@@H]3O[C@@]4(C)CC[C@@H]1[C@]32OO4 [artemisinin] | 0.0794
CNC(C)C(O)c1ccccc1 (configuration not stated) [racephedrine hydrochloride] | 0.103
CC[C@H]1CN2CCc3cc(OC)c(OC)cc3[C@@H]2C[C@@H]1C[C@H]1NCCc2cc(OC)c(OC)cc21 [emetine dihydrochloride] | -1.42
